Reference: publication PMC10164564
No constants are given. Whether binding was seen depends on the method and setting. For part of these data: Binding can be weak; no strength is given. Where a sequence is shown, tags or fusion partners need not be part of it. For part of these data: Binding seen in cells or lysates may run through a third protein.

Assays:
[1] = target: T1, GST-fused C-terminus of USP36 (GST-USP36^801-1121) (human) (UniProt Q9P275); experiment: pull-down; GST fusion or GST alone (200 ng) on glutathione-Sepharose 4B beads, purified His-tagged protein (200 ng) in solution; 50 mM Tris-HCl 7.5, 5 mM MgCl2, 100 mM NaCl, 10% glycerol, 0.5 mg/ml BSA, 5 mM β-mercaptoethanol; 45 min, room temperature; immunoblot; both purified
T1 sequence: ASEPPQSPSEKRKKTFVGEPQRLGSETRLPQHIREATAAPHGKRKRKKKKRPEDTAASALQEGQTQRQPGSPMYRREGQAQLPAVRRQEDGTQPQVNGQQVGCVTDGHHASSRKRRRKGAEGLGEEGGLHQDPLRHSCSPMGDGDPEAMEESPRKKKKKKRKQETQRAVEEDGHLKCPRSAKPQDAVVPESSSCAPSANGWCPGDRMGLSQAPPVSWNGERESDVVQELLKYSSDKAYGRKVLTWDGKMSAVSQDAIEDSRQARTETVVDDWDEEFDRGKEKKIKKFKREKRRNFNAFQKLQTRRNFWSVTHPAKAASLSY

[2] = target: T2, Flag-tagged full-length USP36 (wild type) (human) (UniProt Q9P275); experiment: co-IP; anti-Flag immunoprecipitation from lysates of transfected 293, HeLa or H1299 cells (NP-40 lysis buffer), immunoblot
T2 sequence: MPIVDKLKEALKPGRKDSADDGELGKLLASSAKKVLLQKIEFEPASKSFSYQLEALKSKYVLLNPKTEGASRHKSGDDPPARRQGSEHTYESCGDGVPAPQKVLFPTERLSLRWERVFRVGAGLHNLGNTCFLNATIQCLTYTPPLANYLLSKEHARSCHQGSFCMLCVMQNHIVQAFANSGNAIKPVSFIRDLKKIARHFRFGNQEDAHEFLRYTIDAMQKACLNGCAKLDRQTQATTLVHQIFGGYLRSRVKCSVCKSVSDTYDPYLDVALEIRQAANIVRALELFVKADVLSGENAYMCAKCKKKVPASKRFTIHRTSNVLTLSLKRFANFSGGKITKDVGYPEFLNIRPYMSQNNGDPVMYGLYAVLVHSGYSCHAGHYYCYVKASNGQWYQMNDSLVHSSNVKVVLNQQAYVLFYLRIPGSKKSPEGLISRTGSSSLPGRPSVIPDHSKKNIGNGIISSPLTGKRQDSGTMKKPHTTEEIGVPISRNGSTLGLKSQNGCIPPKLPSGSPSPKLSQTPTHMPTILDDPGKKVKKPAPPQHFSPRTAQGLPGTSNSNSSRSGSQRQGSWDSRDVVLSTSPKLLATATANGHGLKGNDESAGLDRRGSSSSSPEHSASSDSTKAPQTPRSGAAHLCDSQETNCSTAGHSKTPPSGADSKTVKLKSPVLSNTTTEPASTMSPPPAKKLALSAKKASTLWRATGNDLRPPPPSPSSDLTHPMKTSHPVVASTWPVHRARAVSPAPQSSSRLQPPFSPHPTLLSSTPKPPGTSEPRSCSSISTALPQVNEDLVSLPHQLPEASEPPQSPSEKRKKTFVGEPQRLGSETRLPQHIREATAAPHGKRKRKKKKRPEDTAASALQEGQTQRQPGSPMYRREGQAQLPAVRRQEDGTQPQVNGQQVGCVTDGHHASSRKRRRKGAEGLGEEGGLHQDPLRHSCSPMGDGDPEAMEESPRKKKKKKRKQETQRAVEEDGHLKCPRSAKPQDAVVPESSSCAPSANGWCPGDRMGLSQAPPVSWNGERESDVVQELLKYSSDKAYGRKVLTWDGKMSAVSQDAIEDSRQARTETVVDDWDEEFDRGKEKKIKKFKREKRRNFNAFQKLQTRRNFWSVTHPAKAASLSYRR

[3] = target: T2, Flag-tagged full-length USP36 (wild type) (human); experiment: condition: only with 100 μg/ml RNase A and 100 U/ml RNase T1; co-IP; anti-Flag immunoprecipitation in the presence of 100 μg/ml RNase A and 100 U/ml RNase T1; 293 and HeLa cells transfected with Flag-USP36; cells of Supplementary Figures S2C, D not told

Substance | binding [1] | binding [2] | binding [3]
recombinant His-tagged Lasso domain of EXOSC10 (human) (domain or fragment) | binds | – | –
RPS27a (human (endogenous in 293)) | – | binds | no binding
